Here are results for 72 compounds from the supplement of paper PMC8090911.

Counter-ions that a name gives are not always drawn. Some of the results follow. Most values come without repeats; read them as rough.

This experiment deals with p95-ErbB2-MCF7. In words: perinuclear lysosome accumulation (PNLA, size of LAMP2 puncta), robust Z-score vs plate median; higher = more perinuclear lysosome accumulation (reversal of invasive lysosome distribution). The conditions noted are these: 5 µM; 24 h.
As to `CCCCN(CCCC)CCC(O)c1cc2c(Cl)cc(Cl)cc2c2cc(C(F)(F)F)ccc12` (configuration not stated) [Halofantrine hydrochloride], the perinuclear lysosome accumulation was found to be 3.08.
Turning to `C#C[C@]1(O)CC[C@H]2[C@@H]3CCc4cc(O)ccc4[C@H]3CC[C@@]21C` [Ethinylestradiol], the perinuclear lysosome accumulation came out at 0.761.
Then `CCCC1O[C@@H]2C[C@H]3[C@@H]4CCC5=CC(=O)C=C[C@]5(C)[C@H]4[C@@H](O)C[C@]3(C)[C@]2(C(=O)CO)O1` (some centres not stated) [Budesonide], with -0.0449.
Take `NS(=O)(=O)c1cc(Cl)c(Cl)c(S(N)(=O)=O)c1` [Dichlorphenamide]: the perinuclear lysosome accumulation amounted to 2.42.
In the case of `CCN1CCCC(OC(=O)C(c2ccccc2)c2ccccc2)C1` (configuration not stated) [Piperidolate hydrochloride], the perinuclear lysosome accumulation is -0.127.
On to `Cc1onc(-c2c(F)cccc2Cl)c1C(=O)N[C@@H]1C(=O)N2[C@@H]1SC(C)(C)[C@@H]2C(=O)O` [Flucloxacillin sodium], for which the perinuclear lysosome accumulation amounted to 0.497.
The figure for `CN(C)CCCSC(=N)N` [Dimaprit dihydrochloride] is -1.85; for `O=C(NCCN1CCOCC1)c1ccc(Cl)cc1` [Moclobemide] it is -0.407.
On to `CN(C/C=C/c1ccccc1)Cc1cccc2ccccc12` [Naftifine hydrochloride], for which the perinuclear lysosome accumulation was -1.47.
Regarding `CC(=O)CCCCn1c(=O)c2c(ncn2C)n(C)c1=O` [Pentoxifylline], the perinuclear lysosome accumulation was found to be 0.943.
As to `CN1C(=O)OC(C)(C)C1=O` [Trimethadione], the perinuclear lysosome accumulation is -0.83.
Then `OCCN1CCN(CCCN2c3ccccc3C=Cc3ccccc32)CC1` [Opipramol dihydrochloride], with -0.144.
As to `CC(C)NC[C@H](O)COc1cccc2ccccc12` [(S)-propranolol hydrochloride], the perinuclear lysosome accumulation is -2.41.
Then `C[C@@H](O)[C@H]1C(=O)N2C(C(=O)O)=C(S[C@@H]3CN[C@H](C(=O)N(C)C)C3)[C@H](C)[C@H]12` [Meropenem], with 0.866.
As to `CC(=O)O[C@H]1C[C@@H]2CC[C@@H]3[C@H](CC[C@@]4(C)[C@H]3C[C@H]([N+]3(C)CCCCC3)[C@@H]4OC(C)=O)[C@@]2(C)C[C@@H]1N1CCCCC1` [Vecuronium bromide], the perinuclear lysosome accumulation came out at 0.624.
As for `CC1(C)O[C@@H]2C[C@H]3[C@@H]4CCC5=CC(=O)CC[C@]5(C)[C@@]4(F)[C@@H](O)C[C@]3(C)[C@]2(C(=O)CCl)O1` [Halcinonide], the perinuclear lysosome accumulation is -0.453.
For the compound `C[C@]12C=CC(=O)C=C1CC[C@H]1[C@@H]3C[C@@H](O)[C@](O)(C(=O)CO)[C@@]3(C)C[C@H](O)[C@@]12F` [Triamcinolone], the perinuclear lysosome accumulation is -1.63.
Then `CCN(CC)C(=O)/C(C#N)=C/c1cc(O)c(O)c([N+](=O)[O-])c1` [Entacapone], with 0.914; and `OC(c1cc(C(F)(F)F)nc2c(C(F)(F)F)cccc12)C1CCCCN1` (configuration not stated) [Mefloquine hydrochloride], with 2.55.
On to `CNCCCC12CCC(c3ccccc31)c1ccccc12` [Maprotiline hydrochloride], for which the perinuclear lysosome accumulation came out at 0.854.
With `C[C@@H]1C[C@H]2[C@@H]3C[C@H](F)C4=CC(=O)C=C[C@]4(C)[C@@]3(Cl)[C@@H](O)C[C@]2(C)[C@H]1C(=O)COC(=O)C(C)(C)C` [Clocortolone pivalate], the perinuclear lysosome accumulation was -0.315.
On to `CN(C)CCn1nnnc1SCC1=C(C(=O)O)N2C(=O)[C@@H](NC(=O)Cc3csc(N)n3)[C@H]2SC1` [Cefotiam hydrochloride], for which the perinuclear lysosome accumulation came out at 0.706.
The figure for `CC(=O)N[C@@H](CS)C(=O)O` [Acetylcysteine] is -2.56; for `CC(=O)O[C@H]1C[C@@]2(C)[C@@H](C[C@@H](O)[C@H]3[C@@]4(C)CC[C@@H](O)[C@@H](C)[C@@H]4CC[C@@]32C)/C1=C(\CCC=C(C)C)C(=O)O` [Fusidic acid sodium salt] it is 0.364.
With `CCN(CC)CCOC(=O)c1ccc(N)cc1` [Procaine hydrochloride], the perinuclear lysosome accumulation was found to be 1.29.
As to `Cc1c(C)c2c(c(C)c1O)CCC(C)(C(=O)O)O2` (configuration not stated) [Trolox], the perinuclear lysosome accumulation is -0.377.
With `CC[C@H](C)C(=O)O[C@H]1C[C@@H](C)C=C2C=C[C@H](C)[C@H](CC[C@@H]3C[C@@H](O)CC(=O)O3)[C@H]21` [Lovastatin], the perinuclear lysosome accumulation came to 0.298.
As to `CNC(=O)c1c(I)c(C(=O)NCC(=O)Nc2c(I)c(C(=O)O)c(I)c(C(=O)NCCO)c2I)c(I)c(N(C)C(C)=O)c1I` [Ioxaglic acid], the perinuclear lysosome accumulation was -1.1.
Take `CCCCNc1cc(C(=O)O)cc(S(N)(=O)=O)c1Oc1ccccc1` [Bumetanide]: the perinuclear lysosome accumulation is -0.284.
With `CC(=O)Oc1ccccc1C(=O)Oc1ccccc1C(=O)O` [Acetylsalicylsalicylic acid], the perinuclear lysosome accumulation was -0.0859.
For `N=C(N)NCc1cccc(I)c1` [Iobenguane sulfate], the perinuclear lysosome accumulation was -0.279.
The figure for `Cc1ccnc(NS(=O)(=O)c2ccc(N)cc2)n1` [Sulfamerazine] is -0.233.
For the compound `C[C@H]1NC(=O)NC1=O` [Methylhydantoin-5-(D)], the perinuclear lysosome accumulation worked out at 0.358.
For the compound `CNC[C@H](O)[C@@H](O)[C@H](O)[C@H](O)CO` [Meglumine], the perinuclear lysosome accumulation came out at 1.03.
For the compound `Nc1ccc(S(=O)(=O)Nc2cnc3ccccc3n2)cc1` [Sulfaquinoxaline sodium salt], the perinuclear lysosome accumulation worked out at 0.487.
`NCCCC(O)(P(=O)(O)O)P(=O)(O)O` [Alendronate sodium]: the perinuclear lysosome accumulation came to 0.000183.
Then `O=C(O)c1cc(/N=N/c2ccc(S(=O)(=O)Nc3ccccn3)cc2)ccc1O` [Sulfasalazine], with -0.508.
Then `CCc1cccc(CC)c1NC(=O)CN(CC(=O)O)CC(=O)O` [Etifenin], with 1.31; and `CN/C(=N\CCSCc1nc[nH]c1C)NC#N` [Cimetidine], with 0.0111.
`CCCCc1ccc2[nH]c(NC(=O)OC)nc2c1` [Parbendazole]: the perinuclear lysosome accumulation is -0.56.
Consider `Nc1ncnc2c1ncn2C1OC(COP(=O)(O)O)C(O)C1O` (configuration not stated) [Adenosine 5'-monophosphate monohydrate], for which the perinuclear lysosome accumulation was -0.191.
As to `C[C@@H]1C[C@H]2[C@@H]3CCC4=CC(=O)C=C[C@]4(C)[C@@]3(Cl)[C@@H](O)C[C@]2(C)[C@@]1(OC(=O)c1ccco1)C(=O)CCl` [Mometasone furoate], the perinuclear lysosome accumulation was -1.78.
As to `CN1CCCN(C(c2ccccc2)c2ccc(Cl)cc2)CC1` (configuration not stated) [Homochlorcyclizine dihydrochloride], the perinuclear lysosome accumulation worked out at 4.74.
Consider `CC(C)OC(=O)C(C)(C)Oc1ccc(C(=O)c2ccc(Cl)cc2)cc1` [Fenofibrate], for which the perinuclear lysosome accumulation was -0.0606.
Then `Cc1c(O)c(=O)n(-c2ccccc2)n1C` [Antipyrine, 4-hydroxy], with 1.92.
In the case of `Cc1cc2c(s1)Nc1ccccc1N=C2N1CCN(C)CC1` [Olanzapine], the perinuclear lysosome accumulation was 1.09.
Take `CN1CCCN=C1/C=C/c1cccc(O)c1` [Oxantel pamoate]: the perinuclear lysosome accumulation worked out at 0.0633.
The figure for `CC(N)CCCC(C)(C)O` (configuration not stated) [Heptaminol hydrochloride] is -0.271.
Turning to `CC(=O)O[C@H]1C(=O)[C@@]2(C)[C@H]([C@H](OC(=O)c3ccccc3)[C@]3(O)C[C@H](OC(=O)[C@H](O)[C@@H](NC(=O)c4ccccc4)c4ccccc4)C(C)=C1C3(C)C)[C@]1(OC(C)=O)CO[C@@H]1C[C@@H]2O` [Paclitaxel], the perinuclear lysosome accumulation stood at 0.884.
With `CCCN(CCC)CCc1cccc2c1CC(=O)N2` [Ropinirole HCl], the perinuclear lysosome accumulation came out at 0.534.
On to `Cc1nc2ccccn2c(=O)c1CCN1CCC(C(=O)c2ccc(F)cc2)CC1` [Pirenperone], for which the perinuclear lysosome accumulation was -1.3.
For the compound `N/C(=N\C(=O)c1nc(Cl)c(N)nc1N)NCc1ccccc1` [Benzamil hydrochloride], the perinuclear lysosome accumulation is -2.59.
In the case of `O=C(CCNNC(=O)c1ccncc1)NCc1ccccc1` [Nialamide], the perinuclear lysosome accumulation was -0.158.
Consider `NC(=O)c1cnccn1` [Pyrazinamide], for which the perinuclear lysosome accumulation amounted to 0.411.
Turning to `CC1(C)S[C@@H]2[C@H](NC(=O)[C@H](N)c3ccccc3)C(=O)N2[C@H]1C(=O)O` [Ampicillin trihydrate], the perinuclear lysosome accumulation is -0.0969.
With `O=c1n(CCCN2CCN(c3cccc(Cl)c3)CC2)nc2ccccn12` [Trazodone hydrochloride], the perinuclear lysosome accumulation came to 0.501.
As to `COc1ccc2cc([C@H](C)C(=O)O)ccc2c1` [Naproxen], the perinuclear lysosome accumulation was determined as 1.
The figure for `Nc1cc(N2CCCCC2)nc(N)[n+]1[O-]` [Minoxidil] is 1.02; for `Cc1ncc([N+](=O)[O-])n1CC(C)O` (configuration not stated) [Secnidazole] it is -0.388.
Then `C/C=C(/C(=C/C)c1ccc(O)cc1)c1ccc(O)cc1` [Dienestrol], with -0.0646; and `O=C(O)c1ccccc1OP(=O)(O)O` [Fosfosal], with 0.421.
With `COc1cccc2c1C(=O)c1c(O)c3c(c(O)c1C2=O)C[C@@](O)(C(C)=O)C[C@@H]3O[C@H]1C[C@H](N)[C@H](O)[C@H](C)O1` [Daunorubicin hydrochloride], the perinuclear lysosome accumulation was -1.38.
In the case of `C=CC1=C(C(=O)O)N2C(=O)[C@@H](NC(=O)/C(=N\O)c3csc(N)n3)[C@H]2SC1` [Cefdinir], the perinuclear lysosome accumulation is -0.463.
Consider `CC(=O)NS(=O)(=O)c1ccc(N)cc1` [Sulfacetamide sodic hydrate], for which the perinuclear lysosome accumulation was -1.19.
With `Cc1cn([C@H]2C=C[C@@H](CO)O2)c(=O)[nH]c1=O` [Stavudine], the perinuclear lysosome accumulation is 1.04.
As to `CCN(CC)CC(=O)Nc1c(C)cccc1C` [Lidocaïne hydrochloride], the perinuclear lysosome accumulation was -0.138.
As for `c1ccc2c(CC3=NCCN3)cccc2c1` [Naphazoline hydrochloride], the perinuclear lysosome accumulation was found to be 0.734.
The figure for `CC(=O)OCC(=O)[C@@]12OC(C)(C)O[C@@H]1C[C@H]1[C@@H]3C[C@H](F)C4=CC(=O)C=C[C@]4(C)[C@@]3(F)[C@@H](O)C[C@@]12C` [Fluocinonide] is -1.9.
With `CO[C@@H]1[C@@H](O[C@@H]2O[C@H](C)[C@@H](O[C@H]3C[C@@](C)(O)[C@@H](OC(=O)CC(C)C)[C@H](C)O3)[C@H](N(C)C)[C@H]2O)[C@@H](CC=O)C[C@@H](C)[C@@H](O)/C=C/C=C/C[C@@H](C)OC(=O)C[C@H]1OC(C)=O` [Josamycin], the perinuclear lysosome accumulation is 0.247.
Consider `CC(=O)CC(c1ccccc1)c1c(O)c2ccccc2oc1=O` (configuration not stated) [Warfarin], for which the perinuclear lysosome accumulation is 1.2.
For `CC[C@@H]1C(=O)OC[C@@H]1Cc1cncn1C` [Pilocarpine nitrate], the perinuclear lysosome accumulation came to 0.399.
With `CC(C)NC[C@@H](O)COc1ccc(CC(N)=O)cc1` [(R)-(+)-Atenolol], the perinuclear lysosome accumulation was -1.61.
